# Test results: the supplement of paper PMC7238544
# Counter-ions that a name gives are not always drawn. ± gives the standard deviation of the averaged measurements. This is one part of the list. The data scatter; read single values as rough.
# Columns and labels:
# [1] = tested on: hAMSC donor 1; assay: Hoechst total cell count ratio vs vehicle control; higher = more cells (less toxicity)
# [2] = tested on: hAMSC donor 2; assay: as above
# [3] = tested on: hAMSC donor 1; assay: transgenic luciferase activity (RLU/mg protein) fold change vs vehicle control (ratio); higher = more transgene expression
# [4] = tested on: hAMSC donor 1; assay: transfection efficiency (EGFP+ cells / Hoechst count) fold change vs vehicle control (ratio); higher = enhanced transfection
# [5] = tested on: hAMSC donor 2; assay: as above
# [6] = tested on: hAMSC donor 2; assay: transgenic luciferase activity (RLU/mg protein) fold change vs vehicle control (ratio); hAMSC are human adipose-derived mesenchymal stem cells given an EGFP-luciferase plasmid by lipofection; higher = more transgene expression; conditions: priming compound concentration 13 µM
# [7] = priming compound concentration 0.2 µM
# [8] = priming compound concentration 1.7 µM
# [9] = priming compound concentration 13 µM
SMILES,"Hoechst total cell count ratio [1, 7]","Hoechst total cell count ratio [1, 8]","Hoechst total cell count ratio [1, 9]","Hoechst total cell count ratio [2, 7]","Hoechst total cell count ratio [2, 8]","Hoechst total cell count ratio [2, 9]","transgenic luciferase activity [3, 9]","transfection efficiency [4, 7]","transfection efficiency [4, 8]","transfection efficiency [4, 9]","transfection efficiency [5, 7]","transfection efficiency [5, 8]","transfection efficiency [5, 9]",transgenic luciferase activity [6],"transgenic luciferase activity [3, 7]"
Oc1ccc2c3c1O[C@H]1[C@@H](O)CC[C@@]4(O)[C@@H](C2)N(CC2CCC2)CC[C@]314 [Nalbuphine hydrochloride],1.46 ± 0.11,1.39 ± 0.055,1.24 ± 0.13,1.18 ± 0.16,1.24 ± 0.077,1.15 ± 0.22,0.677 ± 0.27,1.12 ± 0.23,0.886 ± 0.2,1.25 ± 0.28,1.02 ± 0.14,0.937 ± 0.15,1.47 ± 0.43,–,–
CN1CCC23CCCCC2C1Cc1ccc(O)cc13 [Dextrorphan D-tartrate],1.77 ± 0.096,1.19 ± 0.16,1.98 ± 0.29,1.15 ± 0.052,1.08 ± 0.064,1.21 ± 0.025,–,0.701 ± 0.057,1.28 ± 0.16,0.596 ± 0.28,1.03 ± 0.21,1.02 ± 0.073,0.824 ± 0.11,0.648 ± 0.28,–
CC(NC(C)(C)C)C(=O)c1cccc(Cl)c1 (configuration not stated) [Bupropion hydrochloride],1.22 ± 0.069,1.23 ± 0.08,1.4 ± 0.073,1.03 ± 0.061,1.43 ± 0.33,1.01 ± 0.28,0.746 ± 0.24,0.903 ± 0.26,1.15 ± 0.16,0.572 ± 0.068,1.13 ± 0.17,1.26 ± 0.12,0.885 ± 0.26,–,–
C[C@]12CC[C@H]3[C@@H](CCC4=CC(=O)CC[C@@H]43)[C@@H]1CC[C@@H]2O [19-Nortestosterone],1.26 ± 0.08,1.39 ± 0.18,1.05 ± 0.12,1.11 ± 0.095,1.11 ± 0.017,1.1 ± 0.12,–,0.812 ± 0.081,0.799 ± 0.17,1.29 ± 0.63,1.05 ± 0.17,0.967 ± 0.13,0.91 ± 0.28,–,1.03 ± 0.19
NC(=O)OCCCc1ccccc1 [Phenprobamate],1.41 ± 0.073,1.47 ± 0.13,1.2 ± 0.078,1.13 ± 0.046,0.746 ± 0.069,0.75 ± 0.093,0.868 ± 0.12,1.03 ± 0.25,0.773 ± 0.18,0.74 ± 0.16,0.886 ± 0.095,1.47 ± 0.034,1.17 ± 0.13,–,–
CC(C)CC(N(C)C)C1(c2ccc(Cl)cc2)CCC1 (configuration not stated) [Sibutramine],1.28 ± 0.24,1.24 ± 0.18,1.35 ± 0.14,1.3 ± 0.22,1.13 ± 0.088,1.23 ± 0.51,0.825 ± 0.58,0.9 ± 0.069,1.14 ± 0.055,0.802 ± 0.23,1.1 ± 0.33,1.26 ± 0.096,0.954 ± 0.42,–,–
NC(=O)C[S+]([O-])C(c1ccccc1)c1ccccc1 (configuration not stated) [Modafinil],1.09 ± 0.13,1.16 ± 0.1,1.49 ± 0.34,1.16 ± 0.072,1.22 ± 0.15,1.04 ± 0.063,–,0.974 ± 0.12,0.905 ± 0.12,0.714 ± 0.21,1.01 ± 0.078,1.27 ± 0.3,1.17 ± 0.15,1.47 ± 0.045,–
"C[N+]1(C)CCN(c2ccccc2)CC1 [1,1-Dimethyl-4-phenylpiperazinium iodide]",1.2 ± 0.15,1.04 ± 0.057,1.27 ± 0.032,1.05 ± 0.17,0.859 ± 0.11,0.907 ± 0.089,–,0.923 ± 0.42,1.44 ± 0.42,0.98 ± 0.15,0.945 ± 0.19,1.39 ± 0.041,1.35 ± 0.048,0.623 ± 0.22,–
CCN(CC)CCOC(=O)C(O)(c1ccccc1)c1ccccc1 [Benactyzine hydrochloride],1.31 ± 0.17,1.31 ± 0.018,0.978 ± 0.098,0.993 ± 0.086,1.18 ± 0.014,1.28 ± 0.14,–,0.783 ± 0.2,0.786 ± 0.067,1.28 ± 0.36,1.13 ± 0.13,1.14 ± 0.035,1.02 ± 0.17,–,0.522 ± 0.38
Oc1cc2c(cc1O)[C@H]1c3ccccc3CN[C@@H]1CC2 (racemic) [Dihydrexidine hydrochloride],1.65 ± 0.074,1.21 ± 0.088,2.13 ± 0.22,1.2 ± 0.3,1.32 ± 0.064,1.14 ± 0.1,–,0.8557 ± 0.0046,1.41 ± 0.062,0.388 ± 0.085,0.914 ± 0.13,1.02 ± 0.18,0.792 ± 0.093,0.784 ± 0.11,–
C[C@]12CCC(=O)C[C@@H]1CC[C@@H]1[C@@H]2CC[C@@]2(C)[C@H]1CC[C@]2(C)O [Mestanolone],1.48 ± 0.028,1.13 ± 0.17,1.84 ± 0.24,1 ± 0.071,1.02 ± 0.046,0.94 ± 0.017,–,1.04 ± 0.14,1.09 ± 0.2,0.586 ± 0.24,0.912 ± 0.072,1.2 ± 0.1,0.923 ± 0.13,0.875 ± 0.12,–
CC(=O)O[C@H]1C[C@@H]2CC[C@@H]3[C@H](CC[C@@]4(C)[C@H]3C[C@H]([N+]3(C)CCCCC3)[C@@H]4OC(C)=O)[C@@]2(C)C[C@@H]1[N+]1(C)CCCCC1 [Pancuronium dibromide],1.2 ± 0.018,1.24 ± 0.081,1.37 ± 0.12,1.17 ± 0.043,1.03 ± 0.022,1.01 ± 0.13,–,0.902 ± 0.19,0.969 ± 0.15,1.09 ± 0.41,1.1 ± 0.19,1.3 ± 0.043,1.29 ± 0.088,0.542 ± 0.038,–
CCCN1C[C@H](CSC)C[C@@H]2c3cccc4[nH]cc(c34)C[C@H]21 [Pergolide mesylate],2.08 ± 1.5,1.41 ± 0.15,1.27 ± 0.16,0.958 ± 0.025,1.46 ± 0.083,1.25 ± 0.33,–,0.506 ± 0.51,0.913 ± 0.16,0.87 ± 0.37,1.1 ± 0.04,0.861 ± 0.13,0.956 ± 0.14,–,0.744 ± 0.67
"COc1ccc2c(c1)[C@]13CCCC[C@@H]1[C@H](C2)N(C)CC3 [Dextromethorphan hydrobromide, monohydrate]",1.48 ± 0.15,1.24 ± 0.38,1.93 ± 0.39,1.03 ± 0.085,1.16 ± 0.082,1.2 ± 0.11,–,0.861 ± 0.11,1.16 ± 0.25,0.485 ± 0.071,1.07 ± 0.2,1.18 ± 0.35,0.78 ± 0.024,0.589 ± 0.13,–

# A section of the results above, for reference:
SMILES,"Hoechst total cell count ratio [1, 7]","Hoechst total cell count ratio [1, 8]","Hoechst total cell count ratio [1, 9]","Hoechst total cell count ratio [2, 7]","Hoechst total cell count ratio [2, 8]","Hoechst total cell count ratio [2, 9]","transgenic luciferase activity [3, 9]","transfection efficiency [4, 7]","transfection efficiency [4, 8]","transfection efficiency [4, 9]","transfection efficiency [5, 7]","transfection efficiency [5, 8]","transfection efficiency [5, 9]",transgenic luciferase activity [6],"transgenic luciferase activity [3, 7]"
CCN(CC)CCOC(=O)C(O)(c1ccccc1)c1ccccc1 [Benactyzine hydrochloride],1.31 ± 0.17,1.31 ± 0.018,0.978 ± 0.098,0.993 ± 0.086,1.18 ± 0.014,1.28 ± 0.14,–,0.783 ± 0.2,0.786 ± 0.067,1.28 ± 0.36,1.13 ± 0.13,1.14 ± 0.035,1.02 ± 0.17,–,0.522 ± 0.38
Oc1cc2c(cc1O)[C@H]1c3ccccc3CN[C@@H]1CC2 (racemic) [Dihydrexidine hydrochloride],1.65 ± 0.074,1.21 ± 0.088,2.13 ± 0.22,1.2 ± 0.3,1.32 ± 0.064,1.14 ± 0.1,–,0.8557 ± 0.0046,1.41 ± 0.062,0.388 ± 0.085,0.914 ± 0.13,1.02 ± 0.18,0.792 ± 0.093,0.784 ± 0.11,–
